Measurements as given in paper PMC9586327.
These are yes or no findings as the source states them, for the method shown. Some binding calls cover weakened binding; strength is not graded here.

By UniProt entry, the sequences of proteins in these tests, tags left out.
UniProt Q9NR12: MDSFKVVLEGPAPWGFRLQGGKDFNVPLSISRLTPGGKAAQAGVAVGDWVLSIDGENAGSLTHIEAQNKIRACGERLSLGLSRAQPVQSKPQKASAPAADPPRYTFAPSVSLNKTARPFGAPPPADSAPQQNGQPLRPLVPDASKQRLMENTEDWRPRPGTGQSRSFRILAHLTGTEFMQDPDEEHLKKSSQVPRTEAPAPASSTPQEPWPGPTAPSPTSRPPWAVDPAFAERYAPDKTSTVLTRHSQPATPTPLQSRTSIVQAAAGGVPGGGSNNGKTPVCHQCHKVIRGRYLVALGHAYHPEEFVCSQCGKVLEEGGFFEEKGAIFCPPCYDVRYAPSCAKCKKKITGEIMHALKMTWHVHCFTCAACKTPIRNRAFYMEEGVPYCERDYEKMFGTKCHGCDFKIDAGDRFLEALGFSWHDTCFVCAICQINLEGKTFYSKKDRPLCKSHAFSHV
UniProt Q6RHR9: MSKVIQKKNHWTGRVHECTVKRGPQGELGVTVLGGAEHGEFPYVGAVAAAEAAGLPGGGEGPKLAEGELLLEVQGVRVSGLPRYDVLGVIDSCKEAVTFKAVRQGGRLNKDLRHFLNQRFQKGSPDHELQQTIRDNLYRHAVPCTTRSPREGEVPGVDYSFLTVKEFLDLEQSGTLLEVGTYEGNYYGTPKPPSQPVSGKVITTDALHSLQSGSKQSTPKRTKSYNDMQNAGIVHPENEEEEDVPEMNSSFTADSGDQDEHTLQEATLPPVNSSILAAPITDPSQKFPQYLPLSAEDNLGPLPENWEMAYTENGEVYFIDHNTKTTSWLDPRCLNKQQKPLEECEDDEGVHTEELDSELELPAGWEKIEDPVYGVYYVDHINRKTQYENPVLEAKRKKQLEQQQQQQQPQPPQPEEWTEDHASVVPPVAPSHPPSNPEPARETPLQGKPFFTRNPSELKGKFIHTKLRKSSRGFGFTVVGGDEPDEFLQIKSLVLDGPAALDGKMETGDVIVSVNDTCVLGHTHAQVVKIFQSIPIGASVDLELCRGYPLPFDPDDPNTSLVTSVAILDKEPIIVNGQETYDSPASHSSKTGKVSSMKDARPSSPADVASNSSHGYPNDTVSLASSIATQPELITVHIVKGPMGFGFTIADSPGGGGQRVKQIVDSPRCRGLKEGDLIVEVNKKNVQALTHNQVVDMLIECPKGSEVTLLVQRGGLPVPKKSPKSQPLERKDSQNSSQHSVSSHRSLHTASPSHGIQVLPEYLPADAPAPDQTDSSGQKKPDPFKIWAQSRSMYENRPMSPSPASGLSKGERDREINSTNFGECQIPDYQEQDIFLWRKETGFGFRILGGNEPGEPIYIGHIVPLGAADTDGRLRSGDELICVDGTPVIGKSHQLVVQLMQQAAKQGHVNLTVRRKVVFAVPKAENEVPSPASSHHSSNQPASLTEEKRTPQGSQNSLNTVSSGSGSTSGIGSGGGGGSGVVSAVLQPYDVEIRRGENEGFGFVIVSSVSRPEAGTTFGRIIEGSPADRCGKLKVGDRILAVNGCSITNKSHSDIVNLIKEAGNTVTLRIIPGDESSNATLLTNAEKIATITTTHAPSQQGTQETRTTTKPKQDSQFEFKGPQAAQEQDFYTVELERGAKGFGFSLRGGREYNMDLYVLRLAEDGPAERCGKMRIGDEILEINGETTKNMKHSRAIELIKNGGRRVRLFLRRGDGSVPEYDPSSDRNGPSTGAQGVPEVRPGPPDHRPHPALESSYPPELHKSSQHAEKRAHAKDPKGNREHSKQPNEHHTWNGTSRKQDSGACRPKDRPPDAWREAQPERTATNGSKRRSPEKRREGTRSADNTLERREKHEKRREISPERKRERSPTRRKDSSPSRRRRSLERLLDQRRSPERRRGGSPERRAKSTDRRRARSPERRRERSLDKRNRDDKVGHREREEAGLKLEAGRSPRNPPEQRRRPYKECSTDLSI

Target: BioID2-Pdlim7 (human) (UniProt Q9NR12)
Assay: relocalisation in cells (coexpression, fluorescence microscopy); COS-7 cells; localisation of the tagged prey expressed alone compared with coexpression with the bait; prey recruited to bait-positive internal structures

With EGFP-Magi1 (from UniProt Q6RHR9 1-1471) as the substance, how does the binding read?
Its binding is “binds”.
